PubChem BioAssay AID1259314, Drosophila RNAi Screening Center – 2017
The deposit covers about 3,100 reagents; below is a random part of them. In the full data, 289 (9.3%) are marked active. 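Active includes both higher and lower ATP than plate average; check the z-score sign for direction.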 The numbers tell different reagents against one gene apart. Not given: the amount of reagent.

Aim: 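Modifiers of manganese chloride toxicity in fly cells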 (primary screen)
Cell system: Drosophila S2R+ cells
Reagents: long dsRNA against Drosophila genes
Time to read-out: 5 days (4 days knock-down, then 1 day metal exposure)
Treatment: manganese chloride added to 15 mM for 24 hours
Detection: 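Luciferase ATP signal used as a proxy for viable cell number, reported as one averaged z-score per dsRNA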
Scale: mean ATP z-score: higher = more ATP than the plate average, more viable cells under manganese
Active means: 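a mean ATP z-score past 1.5 in either direction is called active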
Meaning of the calls: active = strong ATP change, up or down; inactive = no strong ATP change

What did the screen give for Osi18?
mean ATP z-score: -0.622; activity call: inactive

For CngB, what does the deposit list?
mean ATP z-score: -1.06; activity call: inactive

With CG12974 #1, what was measured?
mean ATP z-score: -1.11; activity call: inactive

With CG12974 #2, what was measured?
mean ATP z-score: 0.562; activity call: inactive

How did the screen score CG9416?
mean ATP z-score: -0.705; activity call: inactive

What did the screen give for Orct2 #1?
mean ATP z-score: 0.149; activity call: inactive

With Orct2 #2, what does the deposit list?
mean ATP z-score: -0.497; activity call: inactive

With CG5853 #1, what was measured?
mean ATP z-score: 0.493; activity call: inactive

What is on record for CG5853 #2?
mean ATP z-score: -0.668; activity call: inactive

How did the screen score pyx #1?
mean ATP z-score: -1.26; activity call: inactive

Which result is listed for pyx #2?
mean ATP z-score: 0.463; activity call: inactive

What did the screen give for Or9a #1?
mean ATP z-score: -0.239; activity call: inactive

For Or9a #2, how do the results read?
mean ATP z-score: -0.782; activity call: inactive

For CG14234 #1, what does the deposit list?
mean ATP z-score: -0.0795; activity call: inactive

Which result is listed for CG14234 #2?
mean ATP z-score: 0.211; activity call: inactive

With Sur #1, what does the deposit list?
mean ATP z-score: -0.0895; activity call: inactive

How did the screen score Sur #2?
mean ATP z-score: 0.166; activity call: inactive

As entered above.
Or9a #1, mean ATP z-score: -0.239
CG9416, activity call → inactive
pyx #2, mean ATP z-score = 0.463

Further records:
With CG17036 #1, how do the results read?
mean ATP z-score: 0.843; activity call: inactive

For CG17036 #2, what does the deposit list?
mean ATP z-score: 0.0536; activity call: inactive

What did the screen give for Oatp26F #1?
mean ATP z-score: 0.0609; activity call: inactive

What did the screen give for Oatp26F #2?
mean ATP z-score: 0.179; activity call: inactive

What did the screen give for Oatp26F #3?
mean ATP z-score: -0.309; activity call: inactive

With CG3156 #1, what does the deposit list?
mean ATP z-score: 0.736; activity call: inactive

For CG3156 #2, how do the results read?
mean ATP z-score: 0.887; activity call: inactive

For scb #1, what does the deposit list?
mean ATP z-score: 0.418; activity call: inactive

Which result is listed for scb #2?
mean ATP z-score: -0.425; activity call: inactive

What did the screen give for CG1208 #1?
mean ATP z-score: -0.286; activity call: inactive

For CG1208 #2, how do the results read?
mean ATP z-score: -0.687; activity call: inactive

Which result is listed for VhaAC45RP #1?
mean ATP z-score: -0.527; activity call: inactive

How did the screen score VhaAC45RP #2?
mean ATP z-score: -0.323; activity call: inactive

How did the screen score CG11069?
mean ATP z-score: -0.574; activity call: inactive

With app #1, how do the results read?
mean ATP z-score: -0.672; activity call: inactive

What is on record for app #2?
mean ATP z-score: 1.12; activity call: inactive
